# From the supplement of paper PMC3334620
# Whole data set: some 33,000 sequences, median “E-score (-0.5 to 0.5)” near -0.0034, cut for the highest 2% near 0.25. The list shows a part of the results.
# Molecular target: T1, Yap3 (UniProt P38749)
# T1 sequence: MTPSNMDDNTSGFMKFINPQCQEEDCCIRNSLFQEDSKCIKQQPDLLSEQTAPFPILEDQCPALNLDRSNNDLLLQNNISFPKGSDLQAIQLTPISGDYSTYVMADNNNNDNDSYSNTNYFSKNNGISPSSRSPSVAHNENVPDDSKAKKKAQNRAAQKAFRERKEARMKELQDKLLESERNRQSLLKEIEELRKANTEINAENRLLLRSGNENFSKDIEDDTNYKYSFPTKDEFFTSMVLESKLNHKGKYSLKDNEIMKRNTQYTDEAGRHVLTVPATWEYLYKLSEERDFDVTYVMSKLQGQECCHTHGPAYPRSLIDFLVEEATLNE
# Assay: PBM E-score (8-mer binding enrichment) (E-score (-0.5 to 0.5)); higher = stronger / more preferred TF binding
# Conditions: protein concentration: 100 nM; construct: GST-full length
# Experimental: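 Universal 'all 10-mer' protein binding microarrays (Agilent AMADID 015681) probed with GST-tagged S. cerevisiae TFs (full-length or DBD) made by in vitro transcription/translation (PURExpress), about 100-200 nM. Bound TF was detected with fluorescent anti-GST. Each ungapped 8-mer (which stands for itself and its reverse complement) is scored by the PBM enrichment score (E-score), a modified Wilcoxon-Mann-Whitney statistic from -0.5 to +0.5, computed with the Universal PBM Analysis Suite. Scale: above 0.35 generally sequence-specific binding.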
row,Sequence,PBM E-score
1,TACGAGTA,0.141
2,ACCCACGA,-0.0242
3,GAGTCCGA,0.112
4,GCCTAAGA,-0.134
5,GTGACTAA,0.262
6,GGCGAGTA,0.0731
7,GAGGCTGA,-0.15
8,ATATCTCA,0.268
9,GGAGTCTA,-0.176
10,ATCCTTAA,0.0228
11,CCGAGGTC,-0.101
12,AAGTAAGC,-0.0645
13,TCTCCTCA,-0.0196
14,ATCACCCG,0.035
15,CGATTGGC,0.033
16,CTTCCCAA,0.0527
17,GTGGGGGA,-0.149
18,GATATAAC,0.0853
19,ACCTTTCG,-0.048
20,ATTATTTG,0.197
21,CTCGTCCC,-0.161
22,CTCCAGCC,-0.253
23,AATGTCAC,0.0913
24,CGCTTTAA,0.108
25,GTCTCTGA,-0.158

row,Sequence,PBM E-score
1,ACATAGCT,-0.104
2,ATTCTGTC,0.0978
3,ATAAACTA,0.151
4,CGAAGGAG,-0.133
5,ACGAGTCG,-0.0603
6,CGTAACAA,0.174
7,ACATGGCC,0.0939
8,ACAACCTA,0.0482
9,TTGACCAA,0.0369
10,ACAACCGT,-0.187
11,GAGAGACC,-0.195
12,TACATCTA,0.081
13,ACTCGAAA,-0.0406
14,ACGTCCGC,0.0414
15,ACTACGGC,-0.0822
16,CGACGTTA,0.138
17,CTCTTTAC,0.0471
18,ACTTGACA,-0.108
19,GACGCGGC,-0.0163
20,CAAGCGGC,0.00049
21,GCTATTAA,0.103
22,GGAATACC,0.0209
23,AGAAAACC,-0.0178
24,CCCGGTCA,-0.114
25,GCACATGA,-0.103

# Retrieved one by one from the entries so far, 4 records:
row,Sequence,PBM E-score
10,ACAACCGT,-0.187
12,TACATCTA,0.081
7,ACATGGCC,0.0939
2,ATTCTGTC,0.0978

# (cont.)

row,Sequence,PBM E-score
1,GTTGTCAA,0.0335
2,ACCATTAG,-0.0299
3,GTAATACA,0.273
4,ATATTGAC,0.069
5,AAGCCCCT,-0.282
6,TCACTTAA,0.252
7,ATCCGGTG,0.139
8,CATGGCCC,-0.186
9,CCGTATAC,-0.0052
10,CCGAGACA,-0.131
11,AAGCGCTT,0.321
12,CTATAGCC,-0.267
13,CGGTGCAC,-0.127
14,ACTATTCA,0.191
15,CTTATGTC,0.0347
16,CGGTTCCC,-0.175
17,GGGACAAA,-0.0131
18,CTCCAGAC,-0.195
19,CAACCGCC,-0.103
20,TAGGTTAA,0.0719
21,TCCGTTAA,0.115
22,AAATGATA,0.275
23,ATGTAAAT,0.192
24,CTGTCCGC,-0.0179
25,TGATAGCA,0.176

row,Sequence,PBM E-score
1,ATACACGG,0.105
2,AGCGGATG,-0.121
3,GACTTTCA,0.0935
4,GACAACCC,-0.11
5,CACGATCC,-0.0939
6,AGAGCTAC,-0.0188
7,ATTCAGAA,0.0683
8,CGGCACTC,-0.217
9,CCGAAGGA,-0.177
10,CTAATTAG,0.347
11,GCACAAGC,-0.0462
12,AGGGGCCC,-0.157
13,ACAAAAGT,0.0482
14,TAAAGGCA,0.126
15,AAGGGACG,-0.0997
16,GGGAATCA,-0.0365
17,CAAAGCCG,-0.00668
18,ACTTGATG,-0.0189
19,ACAAAATC,0.181
20,CGAGTAGA,-0.0433
21,CGCTAGGA,-0.0382
22,ACCTGCGT,-0.153
23,ATCAGTCC,-0.328
24,GGGTTGAA,-0.022
25,CGCATACG,-0.0601

row,Sequence,PBM E-score
1,CCTTAAGG,0.0219
2,GGCCTTTA,-0.0858
3,GTGGCCAA,0.0887
4,AACCACAT,0.175
5,GAAGTAGC,-0.0115
6,GATGGGGA,-0.0817
7,AGATCAAG,0.0648
8,AAGGTTCG,-0.129
9,GTTGGCAA,-0.0255
10,TAGAGTAA,0.119
11,CAAAGTCC,-0.0777
12,TATGTGAA,0.0273
13,GCCTAACC,-0.151
14,CCAGGTAC,-0.176
15,AACCTGCC,-0.101
16,CGGAGAAA,0.0609
17,CAGCAGAC,-0.0288
18,CAGCGCCG,-0.151
19,CCCCTTCG,-0.378
20,GCACATAA,0.131
21,CCAGGTAA,-0.0346
22,AACTAATA,0.342
23,CCGTGTCC,-0.0326
24,ACGTATCA,0.137
25,CCAACAGA,0.0551

# Nothing new here: an excerpt of the list.
row,Sequence,PBM E-score
9,GTTGGCAA,-0.0255
10,TAGAGTAA,0.119
11,CAAAGTCC,-0.0777
12,TATGTGAA,0.0273

# (listing goes on)

row,Sequence,PBM E-score
1,GCTAGGAA,-0.0771
2,AGTGCTCG,-0.11
3,CCTACGCG,0.016
4,ACACCGCT,-0.145
5,CGGGTTTA,0.169
6,AGCGGGGA,-0.102
7,ATCTCGAG,0.0454
8,GGGCTAAA,-0.0125
9,CATTCTAG,-0.0724
10,CAGAAAAA,0.0388
11,CACCTACC,-0.119
12,AGAGGCGA,-0.00469
13,CAACGGTC,-0.137
14,ACACGTAC,0.0592
15,GAGCAATC,-0.0416
16,GGAGGCCA,-0.309
17,ACCTTCTA,0.116
18,GCCCCATA,-0.0177
19,AGAGGCAA,0.0405
20,GCTTGGAA,0.0266
21,AGGTAATG,0.0748
22,AATTTAAA,0.171
23,ACGACCAA,-0.0655
24,CTCGTGAC,-0.0978
25,CCTATGCA,0.116

row,Sequence,PBM E-score
1,AAATTTCT,-0.00302
2,CCTGGCCG,-0.168
3,GGACCTAC,-0.124
4,CACAGAGG,-0.168
5,ACACTTCG,0.159
6,CGGGGTAA,0.0457
7,CCATCCAA,-0.106
8,CATTCGGA,0.143
9,ACAATTTC,0.177
10,ATCTGCCG,0.101
11,TCTCGCCA,0.0242
12,CCACACGC,0.0282
13,GACCACGC,-0.0763
14,CTGGTAGA,0.0643
15,CGTGCTAC,-0.185
16,ACCTGGTC,-0.115
17,CAAGTAAA,0.162
18,CGTTGTTC,0.0743
19,ACAGAGGT,-0.0174
20,CTTAGAGC,-0.0124
21,AGCTTCCA,-0.0552
22,ACAGGCCT,-0.0323

# An excerpt of these results, tab-delimited:
row	Sequence	PBM E-score
14	CTGGTAGA	0.0643
18	CGTTGTTC	0.0743
20	CTTAGAGC	-0.0124
